Library screen at single concentrations

Data taken from ChEMBL document CHEMBL3988442, “University of Dundee, Small-Polar-MMV Screening Library” (2021).

A: 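Growth of Mycobacterium tuberculosis over 4 days (cholesterol / DPPC medium with tyloxapol); the read-out is not stated. Tested at 50 µM. The record gives no direction; compounds that gave an IC50 in retests scored well above the rest, so higher reads as more growth inhibition. About 69,000 compounds were tested under these conditions; 0.54% (about 370) showed 50% or more at least once.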
B: 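Whole-cell growth test on Mycobacterium tuberculosis, read after 3 days in glucose-containing 7H9 medium; the read-out is not stated. Concentration: 50 µM. The record gives no direction; compounds that gave an IC50 in retests scored well above the rest, so higher reads as more growth inhibition. Of about 69,000 compounds tested this way, about 760 (1.1%) reached 50% or more in at least one test.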

Results are given as percent effect. How 0% and 100% were set is not recorded. Most values in the screen are low, and negative values occur. This is an unselected part of the compounds tested. Two or more numbers in one place are separate tests of the same structure; such repeats can differ widely.

| structure | A | B |
|---|---|---|
| `Cc1nc(-c2ccc(CC(=O)N3CCN(C(=O)C4CC4)CC3)cc2)cs1` | -19.87% | -23.01% |
| `CCn1cc(CN2CCCN(C(=O)CCn3cc(C)cn3)CC2)cn1` | -4.993% | 28.48% |
| `COC(=O)c1ccc(CN(C)C(=O)c2cnsn2)cc1` | 30.72% | 44.44% |
| `[H][C@]12CNC[C@@]1(C(=O)NCc1nc(C)cc(C)n1)CN(C(=O)COC)C2` | -12.52% and -25.41% | 6.434% |
| `[H][C@@]12CCC(=O)N(CC(C)C)[C@]1([H])CCN(C(=O)Cn1ccccc1=O)C2` | 14.48% | 7.414% |
| `CCCOc1cc(C)ccc1NC(=O)NCCC(=O)N(C)C` | -20.36% | -4.42% and -21.32% |
| `Cn1cnc2c1C(COCC1CCOCC1)CN(C1CCOCC1)C2.O=C(O)C(F)(F)F.O=C(O)C(F)(F)F` (centres unmarked) | -10.76% | 8.9% |
| `Cc1cnc(NC(=O)N2CCOCC2)s1` | -10.92% | 12.39% |
| `OCC(O)CSCc1cn(-c2ccc(Cl)cc2)nn1` (centres unmarked) | 16.08% | 2.441% |
| `Cc1ncnc2c1CCN(C(=O)Cc1cccc(F)c1)CC2` | 13.56% | 4.977% and -5.7% |
| `Cc1nc(NC(=O)CCOCC(F)(F)F)ccc1Br` | -13.53% | 30.29% |
| `Oc1ccc(Cl)cc1CNCc1cccc(C(F)(F)F)c1` | 43.62% | 12.75% and 45.74% |
| `Cn1ccnc1SCCNC1CCN(c2nc3ccccc3s2)CC1` | 1.138% | 5.908% |
| `c1ccc(-c2noc(CN3CCC(c4ccn[nH]4)CC3)n2)cc1` | 24.3% | 13.62% |
| `CC(=O)N1CCOCC2(CCN(Cc3ccc(C)s3)CC2)C1.O=C(O)C(F)(F)F` | 6.818% | 21.38% |
| `Cc1ccc(CNC(=O)c2c[nH]nc2NC(=O)C2CCC2)cc1` | 2.274% | 0.7424% |
| `CC(O)CN1CCC(CNCc2cccc(C(F)(F)F)c2)CC1` (centres unmarked) | -17.36% | -4.515% |
| `[H][C@@]12CN(S(=O)(=O)c3ccccc3)C[C@]1([H])OCC(=O)N2Cc1ccccc1` | 19.17% | -6.68% and 7.327% |
| `[H][C@@]12CCN(C(=O)COc3ccccc3OC)C[C@]1(COC)CCO2` | -22.88% | -20.29% |
| `COCCNC(=O)Nc1ccc(F)c(C(N)=O)c1` | -16.39% | 0.667% |
| `CCC(CNC(=O)NC1CCN(C)CC1)Oc1ccccc1Cl` (centres unmarked) | -8.066% | 1.995% |
| `O=C(Cn1cccn1)Nc1ccc(N2CCOCC2)cc1` | -10.24% | -14.82% |
| `N#Cc1cccc(CN2C[C@@H](F)[C@@H](OCc3nc4ccccc4[nH]3)C2)c1` | 12.18% | 26.21% and 5.244% |
| `Cc1cc(C(=O)NCCC(=O)N2CCCc3ccccc32)no1` | -4.395% | -4.73% |
| `Cc1cc(C)n(CC2CCCN2C(=O)Cc2cn3ccccc3n2)n1` (centres unmarked) | 0.3823% | -14.61% |
| `CNC(=O)CN1CCOCC12CCN(C(=O)c1ccccc1)CC2.O=C(O)C(F)(F)F` | -21.75% | -20.46% |
| `COC[C@]1(O)CCN(C(=O)c2cccc(CN(C)C)c2)CC1(C)C` | 1.82% | 22.32% |
| `Cc1ccc(N2CCCC3(COCCN(c4cnccn4)C3)C2)nn1` (centres unmarked) | 20.43% | 53.26% |
| `Cn1cc(N2CC3(CCN(CC4CCOCC4)CC3)OCC2=O)cn1.O=C(O)C(F)(F)F` | 5.796% | 0.008157% |
| `c1ccc(C2CCCN2Cc2nc(-c3cnccn3)no2)nc1` (centres unmarked) | 4.936% | 14.29% |
| `Cc1ncc2c(n1)CN(c1ncnc3[nH]ccc13)CC2` | -30.94% | -5.808% |
| `CCOCCC(=O)N(CCC#N)c1ccc(C)c(C)c1` | -11.7% | 17.31% |
| `CN(Cc1nc(C(F)(F)F)cs1)C(=O)CCc1cccnc1` | -7.575% and -4.401% | -17.33% |
| `Cn1cc(C2CC(=O)NC23CCN(C(=O)C2CC=CC2)CC3)cn1` (centres unmarked) | -16.8% | -5.12% |
| `Cc1ccc(C2CCCN(C(=O)c3cnn(C)c3)C2)nc1` (centres unmarked) | -43.77% | -39.54% |
| `CN(Cc1ccccc1)CC(O)Cn1cnc2cc(F)ccc2c1=O` (centres unmarked) | -4.185% | 10.5% |
| `CC1(C)Cc2nc(C(C)(C)C)ncc2C(NC(=O)CN)C1` (centres unmarked) | -9.378% | 2.766% |
| `CCCN1CCCC2(CCN(Cc3cncn3C3CCCC3)C2)C1=O` (centres unmarked) | -11.66% | -20.14% and 0.9264% |
| `Cc1nc(CN2CCC(C(=O)O)(n3ccc(C(C)C)n3)CC2)co1` | 11.08% | -22.76% |
| `CC(C)(C)n1nc(C(=O)NC2CCN(CC(N)=O)CC2)cc1C1CC1` | -23.09% | -8.294% |
| `Cc1nc2cc(=O)[nH]n2c(C)c1CC(=O)NCCCc1ccccc1` | -16.62% | -13.82% |
| `CNc1nc(CNC(=O)Nc2cccc(CSC)c2)cs1` | -2.7% | 18.75% |
| `O=C(CN1C(=O)CCNC1=O)N1CCC2(CCc3ccccc32)CC1` | -7.319% and 0.8589% | -0.9354% |
| `Cc1nc[nH]c1-c1nc2cc(S(=O)(=O)N3CCCC3)ccc2n1C` | -11.03% | -3.502% and -19.75% |
| `CCCN(CC1COc2ccccc2O1)C(=O)C1=NN(C)C(=O)CC1` (centres unmarked) | -2.877% | -10.34% and 1.205% |
| `CSCCC(=O)N(C/C=C/c1ccccc1)CCO` | 0.4176% | -15.21% and 18.84% |
| `Cc1nnc(N2CCN(C)C3(CCC(=O)N(CCO)CC3)C2)s1` (centres unmarked) | 16.58% | 13.3% |
| `Nc1ncncc1-c1noc([C@@H]2CCCN2Cc2cccnc2)n1` | -11.02% | -9.242% and -1.876% |
| `O=C(O)C(F)(F)F.[H][C@@]12CN(CC(=O)N(C)C)C[C@]1([H])C(=O)N(Cc1cccc(F)c1)C2` | -4.727% | 0.5568% |
| `O=C(C1CCCC1)N1CC2(CCCN(C3COC3)C2)Cc2ccccc21` (centres unmarked) | -1.357% | 17.35% |
| `CCN(Cc1nccs1)Cc1cc(Cl)ccc1OC` | 12.55% | 7.567% and 13.6% |
| `CCc1nc(C2CCCN2Cc2ccno2)no1` (centres unmarked) | -11.83% | -4.437% |
| `COCCN1CCC(CN(C)c2nc3c(s2)c(C)nn3C)CC1` | -25.67% | -30.84% |
| `COc1ccc(NC(=O)N2CCC3(CC2)NC(=O)CC3C(=O)O)cc1Cl` (centres unmarked) | 15.05% and -19.82% | -24.08% |
| `[H][C@]12CC[C@@]([H])(C1)N(Cc1cc(-c3ccccc3)no1)C2` | 22.19% and 41.73% | 25.3% |
| `COc1ccc2nc(C3CC3)cc(C(=O)NCCc3nnc[nH]3)c2c1` | 18.08% | 24.54% |
| `COc1ccc(-c2nc3c([nH]2)CCCNC3=O)cc1OC` | -21.97% and -13.65% | -3.098% |
| `O=C1N(C2CCCCC2)CCCC12CCN(S(=O)(=O)c1cccnc1)C2` (centres unmarked) | -20.26% | 25.57% |
| `Cc1ncsc1C(=O)NCCn1nc2ccccn2c1=O` | -13.73% | -28.8% |
| `Cn1cccc1C(=O)NCc1cnc2n1CCN(c1ccccn1)C2` | 18.61% | 21.5% and 5.866% |
| `Cc1nccn1CCCN1CCC(c2nccn2CC2CCC2)CC1` | 2.364% | 20.54% |
| `[H][C@@]12C[C@H](c3nc(C)no3)CN(S(C)(=O)=O)[C@]1([H])CCO2` | 13.95% | 13.34% |
| `CCC1CN(Cc2nnc(C3CC3)o2)CCN1CCOC` (centres unmarked) | 21.42% | -7.464% and -7.079% |
| `O=S1(=O)COCCN1CCCOc1ccc(F)cc1` | 14.59% | -39.39% |
| `c1cnn(CC2CN(CC3CCCC3)CCO2)c1` (centres unmarked) | 4.144% | 16.14% |
| `O=C(c1cccnc1N1CCOCC1)N1CCCC(n2ccnc2)C1` (centres unmarked) | -12.16% | 3.299% |
| `Cc1ccccc1N1CC2(CCN(c3nncs3)C2)CC1=O` (centres unmarked) | -2.965% | 14.22% |
| `N#CC1(c2ccccc2)CCN(C(=O)C2CCCN(CC(N)=O)C2)CC1` (centres unmarked) | -4.248% | 4.501% and 11.99% |
| `O=C(Cn1[nH]c2ccccc2c1=O)N1CCCC(CC2CC2)(C(=O)O)C1` (centres unmarked) | 15.01% | -2.068% and 1.043% |
| `COc1ccc(CNCC(C)Oc2ccccn2)cc1Br.Cl` (centres unmarked) | 22.99% | 18.52% |
| `COCCNC(=O)N1CC(Cc2ccccc2F)C1` | 7.066% | -13.16% |
| `O=C(O)C(F)(F)F.O=C(O)C(F)(F)F.[H][C@@]12CN(C)CCO[C@]1([H])CN(S(=O)(=O)c1cccnc1)C2` | -4.671% | -0.1346% |
| `CCC(C)(C)NC(=O)CN(C)C(c1cccc(F)c1)c1ccccn1` (centres unmarked) | -3.892% | 10.6% |
| `CS(=O)(=O)CCCNC(=O)Nc1sc2ccccc2c1Cl` | 2.748% | 8.708% |
| `O=C(O)C(F)(F)F.O=C(O)C(F)(F)F.c1cncc(-c2ncnc3c2CCN(Cc2ccsc2)CC3)c1` | -33.26% | -49% |
| `CC(=O)N1CCC(c2ncc(C(=O)Nc3ccccc3)c(C)n2)CC1` | -3.59% and -2.083% | -8.866% |
| `O=C(CCCn1ccnc1)N[C@H]1CN(C2CCCC2)C[C@@H]1C1CC1` | -4.818% | 17.25% and 5.341% |
| `Cc1ncc(C)c(N2Cc3cnn(Cc4ccc(F)cc4)c3C2)n1` | 20.2% and 31.27% | 1.384% |
| `CCOc1ccc(C(=O)CCC(=O)NCc2cncn2CC)cc1C` | -72.41% | -2.711% and -44.37% |
| `[H][C@@]12CS(=O)(=O)C[C@]1([H])N(Cc1ccoc1)CCN2Cc1ccncc1` | -4.054% | -15.45% |
| `Cc1n[nH]c(C)c1CN(C)C(C(=O)O)c1ccc2c(c1)OCO2` (centres unmarked) | -9.146% | 1.964% and -6.031% |
| `c1cnc(NCc2n[nH]c3c2CCN(Cc2cccnc2)C3)nc1` | 3.976% | 0.7383% and -1.171% |

Some entries from above, unchanged:

{"structure": "COCCNC(=O)Nc1ccc(F)c(C(N)=O)c1", "A": -16.39, "B": 0.667}
{"structure": "CNc1nc(CNC(=O)Nc2cccc(CSC)c2)cs1", "A": -2.7, "B": 18.75}
{"structure": "O=C1N(C2CCCCC2)CCCC12CCN(S(=O)(=O)c1cccnc1)C2", "stereo": "centres unmarked", "A": -20.26, "B": 25.57}
{"structure": "Cc1ccc(N2CCCC3(COCCN(c4cnccn4)C3)C2)nn1", "stereo": "centres unmarked", "A": 20.43, "B": 53.26}
{"structure": "COC(=O)c1ccc(CN(C)C(=O)c2cnsn2)cc1", "A": 30.72, "B": 44.44}
{"structure": "CCC(CNC(=O)NC1CCN(C)CC1)Oc1ccccc1Cl", "stereo": "centres unmarked", "A": -8.066, "B": 1.995}
{"structure": "[H][C@]12CC[C@@]([H])(C1)N(Cc1cc(-c3ccccc3)no1)C2", "A": "22.19 and 41.73", "B": 25.3}
{"structure": "c1cnc(NCc2n[nH]c3c2CCN(Cc2cccnc2)C3)nc1", "A": 3.976, "B": "0.7383 and -1.171"}
{"structure": "Cc1ccccc1N1CC2(CCN(c3nncs3)C2)CC1=O", "stereo": "centres unmarked", "A": -2.965, "B": 14.22}